# Experimental data published in the supplement of paper PMC4604168 (melanoma cell lines).
# This is one part of the list. Many values rest on one well or one pass, so single values are uncertain.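 Imaging used 1,536-well plates; nuclei positive for cleaved PARP by antibody were divided by total DNA-stained nuclei to yield the apoptosis fraction. Doses for screening kept most cells viable, and cell lines differ markedly in resting and induced cleaved-PARP levels.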
# Tested on: 501Mel
# Assay: cleaved PARP positive nuclei fraction relative to DMSO control; melanoma cells; higher = more apoptosis
# Conditions: library dose: low library concentration; 72 h
row,Structure (SMILES),cleaved PARP positive nuclei fraction
1,"Cn1cc(C2=C(c3cn(C4CCN(Cc5ccccn5)CC4)c4ccccc34)C(=O)NC2=O)c2ccccc21 [Enzastaurin] + O=C(O)[C@@H]1[O][Sb](=[O])([O][Sb]2(=[O])[O][C@H]([C@H](O)CO)[C@H](O)[C@H](C(=O)O)[O]2)[O][C@H]([C@H](O)CO)[C@@H]1O [stibogluconate] (first compound 0.8 µM, partner dose 2 µM)",143%
2,"C[C@]12O[C@H](C[C@]1(O)CO)n1c3ccccc3c3c4c(c5c6ccccc6n2c5c31)CNC4=O [Lestaurtinib] + CNC(=O)c1cc(Oc2ccc(NC(=O)Nc3ccc(Cl)c(C(F)(F)F)c3)cc2)ccn1 [sorafenib] (first compound 0.004 µM, partner dose 0.4 µM)",65%
3,"CC1(C)CCC(c2ccc(Cl)cc2)=C(CN2CCN(c3ccc(C(=O)NS(=O)(=O)c4ccc(N[C@H](CCN5CCOCC5)CSc5ccccc5)c(S(=O)(=O)C(F)(F)F)c4)cc3)CC2)C1 + Cn1cc(C2=C(c3cn(C4CCN(Cc5ccccn5)CC4)c4ccccc34)C(=O)NC2=O)c2ccccc21 [Enzastaurin] (first compound 0.4 µM, partner dose 0.8 µM)",54.6%
4,"Cn1cc(C2=C(c3cn(C4CCN(Cc5ccccn5)CC4)c4ccccc34)C(=O)NC2=O)c2ccccc21 [Enzastaurin] + O=C(O)c1ccc2c(c1)nc(Nc1cccc(Cl)c1)c1ccncc12 [CX4945] (first compound 0.8 µM, partner dose 0.4 µM)",70.5%
5,"N.N.[Cl][Pt][Cl] [cisplatin] + CNC(=O)c1cc(Oc2ccc(NC(=O)Nc3ccc(Cl)c(C(F)(F)F)c3)cc2)ccn1 [sorafenib] (first compound 1.6 µM, partner dose 0.4 µM)",140%
6,"N.N.[Cl][Pt][Cl] [cisplatin] + CS(=O)(=O)CCNCc1ccc(-c2ccc3ncnc(Nc4ccc(OCc5cccc(F)c5)c(Cl)c4)c3c2)o1 [lapatinib] (first compound 1.6 µM, partner dose 0.8 µM)",59.4%
7,"C[C@]12O[C@H](C[C@]1(O)CO)n1c3ccccc3c3c4c(c5c6ccccc6n2c5c31)CNC4=O [Lestaurtinib] + Cc1cc(Nc2cc(N3CCN(C)CC3)nc(/C=C/c3ccccc3)n2)n[nH]1 [ENMD2076] (first compound 0.004 µM, partner dose 0.04 µM)",74.6%
8,"C[As](C)SC[C@H](NC(=O)CC[C@H](N)C(=O)O)C(=O)NCC(=O)O [Darinaparsin] + Cn1nnc2c(C(N)=O)ncn2c1=O [temozolomide] (first compound 0.4 µM, partner dose 2 µM)",56.3%
9,"CCCCCCCCCCCCCCCCCCOP(=O)([O-])OC1CC[N+](C)(C)CC1 [Perifosine] + Cn1cc(C2=C(c3cn(C4CCN(Cc5ccccn5)CC4)c4ccccc34)C(=O)NC2=O)c2ccccc21 [Enzastaurin] (first compound 0.4 µM, partner dose 0.8 µM)",187%
10,"C=CCNC1=C2C[C@@H](C)C[C@H](OC)[C@H](O)[C@@H](C)/C=C(\C)[C@H](OC(N)=O)[C@@H](OC)/C=C\C=C(/C)C(=O)NC(=CC1=O)C2=O [Tanespimycin] + C[As](C)SC[C@H](NC(=O)CC[C@H](N)C(=O)O)C(=O)NCC(=O)O [Darinaparsin] (first compound 0.002 µM, partner dose 0.4 µM)",146%
11,"Cn1sc(=O)n(Cc2ccccc2)c1=O + C[As](C)SC[C@H](NC(=O)CC[C@H](N)C(=O)O)C(=O)NCC(=O)O [Darinaparsin] (first compound 0.4 µM, partner dose 0.4 µM)",62.8%
12,"CC1(C)CCC(c2ccc(Cl)cc2)=C(CN2CCN(c3ccc(C(=O)NS(=O)(=O)c4ccc(N[C@H](CCN5CCOCC5)CSc5ccccc5)c(S(=O)(=O)C(F)(F)F)c4)cc3)CC2)C1 + C[As](C)SC[C@H](NC(=O)CC[C@H](N)C(=O)O)C(=O)NCC(=O)O [Darinaparsin] (first compound 0.4 µM, partner dose 0.4 µM)",118%
13,"Cc1cc(Nc2cc(N3CCN(C)CC3)nc(Sc3ccc(NC(=O)C4CC4)cc3)n2)n[nH]1 [Tozasertib] + C[As](C)SC[C@H](NC(=O)CC[C@H](N)C(=O)O)C(=O)NCC(=O)O [Darinaparsin] (first compound 0.006 µM, partner dose 0.4 µM)",94.5%
